Results: PubChem BioAssay AID1671190 (National Center for Advancing Translational Sciences (NCATS), 2021)
In all, about 580,000 compounds went through this assay and about 6,100 (1.1%) were called active. Inconclusive results, whose numbers are uncertain, are shown with a selection of clear calls. The call rests on the fitted dose curve; in most records, active means well fitted inhibition curve with a large enough effect; inconclusive means small, poorly fitted or top-dose-only effect, or another doubt; inactive means no such curve, though single readings can be large or run the other way. A potency beside an inconclusive call is a rough fit, not a confirmed value.

Protein sequences, listed by entry. Tags and fused reporters are not part of them. Lines headed by an entry give the natural chain unless they say otherwise; changes in a name come on top.
UniProt P18054: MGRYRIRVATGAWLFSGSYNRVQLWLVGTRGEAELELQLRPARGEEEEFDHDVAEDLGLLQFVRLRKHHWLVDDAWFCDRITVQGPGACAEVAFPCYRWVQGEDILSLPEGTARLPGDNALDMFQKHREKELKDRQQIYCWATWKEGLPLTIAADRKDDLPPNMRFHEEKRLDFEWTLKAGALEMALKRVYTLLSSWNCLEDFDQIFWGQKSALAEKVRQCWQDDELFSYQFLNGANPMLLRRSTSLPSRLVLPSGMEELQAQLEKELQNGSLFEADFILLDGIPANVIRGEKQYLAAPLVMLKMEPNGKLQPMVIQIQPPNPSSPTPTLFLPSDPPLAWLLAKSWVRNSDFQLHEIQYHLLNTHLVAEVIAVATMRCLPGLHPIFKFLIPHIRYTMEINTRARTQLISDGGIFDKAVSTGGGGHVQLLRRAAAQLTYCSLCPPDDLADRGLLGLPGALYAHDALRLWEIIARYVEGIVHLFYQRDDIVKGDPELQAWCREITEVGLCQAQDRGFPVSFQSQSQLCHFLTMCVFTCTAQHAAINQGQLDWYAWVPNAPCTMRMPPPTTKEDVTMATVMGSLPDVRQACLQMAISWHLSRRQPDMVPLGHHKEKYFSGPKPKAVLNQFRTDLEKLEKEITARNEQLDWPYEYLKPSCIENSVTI

The compounds below were run against Polyunsaturated fatty acid lipoxygenase ALOX12 (Homo sapiens) (UniProt P18054) (assay: Primary qHTS assay for inhibitors of human arachidonate 12S-lipoxygenase (ALOX12): Round 2). Details: purified 12hLO, xylenol orange hydroperoxide absorbance; activity change, negative = inhibition: at 108 µM (top of the series) unless noted.
Method in brief: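 Hydroperoxide product was detected by ferrous iron/xylenol orange as the 573 to 405 nm absorbance ratio. Arachidonic acid at 40 uM (final) was turned over for 30 min at room temperature by 150 nM human 12hLO, pH 7.0 Hepes buffer, after 15 min compound preincubation.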
On the % scale 0 is the no-effect control and ±100 the full control effect; potency means the concentration at half of the fitted maximal effect.

SMILES | activity change, negative = inhibition | Potency
O=C(CN(Cc1ccco1)Cc1cccs1)N1CCN(S(=O)(=O)c2cccc(F)c2)CC1 | inactive: -1.36% | 
O=C(Nc1ccccc1Cl)Nc1cccnc1Cl |  | inconclusive: 44.7 µM [inhibitor, partial curve, poor fit]
CC(=O)Nc1ccc(S(=O)(=O)N2CCN(C(=O)C3COc4ccccc4O3)CC2)cc1 (stereo not given) | inactive: 0% | 
CN(C)c1oc(-c2ccccc2)nc1S(=O)(=O)c1ccc2c(c1)OCCO2 |  | inconclusive: 35.5 µM [inhibitor, partial curve, poor fit]
COc1ccc(C(CC(=O)O)NC(=O)OC(C)(C)C)cc1 (stereo not given) |  | inconclusive: 63.1 µM [inhibitor, partial curve, poor fit]
CSc1ccc(N/N=C(/C#N)S(=O)(=O)C(C)(C)C)cc1 |  | inconclusive: 50.1 µM [inhibitor, partial curve, poor fit]
O=C(c1ccco1)N1CCN(S(=O)(=O)c2cccc(Cl)c2)CC1 |  | inconclusive: 10 µM [inhibitor, full curve]
Cc1ccc(NC(=O)N2CCCC2C(=O)NCCc2ccccc2)cc1 (stereo not given) |  | inconclusive: 141 µM [inhibitor, single point]
Cc1ccc(S(=O)(=O)Nc2nc3ccc(N)cc3s2)cc1 | inactive: -29.1% | 
CN(CCc1cnn(C)c1)C(=O)c1coc(COc2cccc(C(F)(F)F)c2)n1 | inactive: 43.5% | 
COc1cccc(N2CCN(C(C(=O)O)c3c[nH]c4cc(NC(=O)CCC(=O)O)ccc34)CC2)c1 (stereo not given) |  | inconclusive: 112 µM [inhibitor, single point]
Cc1cccc(NC(=O)C2COc3ccccc3O2)n1 (stereo not given) |  | inconclusive: 112 µM [inhibitor, single point]
COc1ccc(OC)c(NC(=O)CSc2nc3c(c(=O)n2C)SCC3)c1 |  | inconclusive: 89.1 µM [inhibitor, single point]
Cc1ccc(-c2nn(-c3ccccc3)cc2/C=N/NS(=O)(=O)c2ccccc2)cc1 | inactive: -8.15% | 
COc1ccc(NS(=O)(=O)c2cc(NC(=O)C3CC3)ccc2N2CCCCC2)cc1 | inactive: 4.79% | 
CC(C)Cc1cc(C(=O)Nc2ccccc2)c2ccccc2n1 |  | inconclusive: 5.01 µM [inhibitor, partial curve, poor fit]
COc1ccc(-n2c(=O)cnc3cnc(N4CCN(C)CC4)nc32)cc1 |  | inconclusive: 31.6 µM [inhibitor, single point]
Fc1ccccc1-n1ncc2c1ncn1nc(Cc3ccccc3)nc21 |  | inconclusive: 178 µM [inhibitor, partial curve, poor fit]
Cc1ccccc1N1C(S)=C(C#N)C(=O)NC12CCCCC2 |  | inconclusive: 79.4 µM [inhibitor, partial curve, poor fit]
O=C(CCCc1ccccc1)N1CCC2(CC1)CN(C1CCC1)CC2CO (stereo not given) |  | inconclusive: 3.55 µM [inhibitor, full curve, poor fit]
CCOC(=O)C1(C)CCN1C(=O)c1cccs1 (stereo not given) | inactive: -13.9% | 
COc1ccc(-c2nc3sc(CCNC(=O)c4ccccc4C)c(C)n3n2)cc1 |  | inconclusive: 44.7 µM [inhibitor, partial curve]
COc1cccc(S(=O)(=O)Nc2ccc3c(c2)OCCO3)c1 |  | inconclusive: 28.2 µM [inhibitor, single point]
CCN(CC)CCNCC(O)(c1ccc(Cl)cc1)c1ccc(Cl)cc1 |  | inconclusive: 25.1 µM [inhibitor, single point]

SMILES | activity change, negative = inhibition | Potency
Cc1ccc(-n2c(CCc3nc4ccccc4[nH]3)n[nH]c2=S)cc1 |  | inconclusive: 70.8 µM [inhibitor, partial curve, poor fit]
CN(CC(=O)Nc1ccc(Cl)cc1)C(=O)CCc1ccccc1 | inactive: -4.31% | 
CC(Oc1cccc(Cl)c1)C(=O)Nc1ccc(N2CCOCC2)cc1N1CCOCC1 (stereo not given) | inactive: 2.82% | 
NC(N)=N/N=C/c1cccc([N+](=O)[O-])c1O | inactive: -13.8% | 
O=c1cc(CN2CCN(c3cccc(Cl)c3)CC2)c2cc(Cl)c(O)cc2o1 | inactive: -26.6% | 
COc1ccccc1/C=C1\Oc2cc(OS(=O)(=O)c3ccc(C)cc3)ccc2C1=O |  | inconclusive: 35.5 µM [inhibitor, single point]
CCn1c2ccccc2c2nnc(SCC(=O)Nc3cc(C)on3)nc21 | inactive: -21.3% | 
CNc1oc(-c2ccccc2C)nc1S(=O)(=O)c1ccc(F)cc1 | inactive: 9.81% | 
CC(C)Nc1ccc(Nc2ccnc3cc4ccccc4cc23)cc1 |  | inconclusive: 56.2 µM [inhibitor, partial curve, poor fit]
Oc1ccc2ccccc2c1CNc1ccc(Br)cc1 |  | active: 3.55 µM
O=C(CCN1CCCCC1)Nc1ccccc1 | inactive: -18.6% | 
COc1ccc(-n2c(=S)[nH]c3cc(C(=O)Nc4ccc(F)cc4)ccc3c2=O)c(OC)c1 |  | inconclusive: 50.1 µM [inhibitor, single point]
COc1cc(/C=C/C(=O)OCC(=O)Nc2ccc(C)c(S(=O)(=O)N3CCCCC3)c2)ccc1O | inactive: -6.36% | 
NC(c1csc(NC(=O)c2cccc(OC(F)(F)F)c2)n1)c1ccccc1Cl (stereo not given) |  | inconclusive: 79.4 µM [inhibitor, partial curve, poor fit]
Cc1ccsc1C(=O)OCC(=O)N1c2ccccc2NC(=O)C1(C)C | inconclusive: -59.5% [inhibitor] | 
O=C(C[C@@H]1C/C=C\C[C@@H](Cc2ccc(F)cc2)C(=O)OC[C@@H]2CCCN2C1=O)N[C@H](CO)Cc1ccccc1 |  | inconclusive: 11.2 µM [inhibitor, full curve, poor fit]
CCN1CCN(CC(O)COc2cccc(OC)c2)CC1 (stereo not given) |  | inconclusive: 44.7 µM [inhibitor, partial curve, poor fit]
COc1ccccc1CCNC(=O)COc1cccc2c1OC(C)(C)C2 | inactive: 5.21% | 
CCOc1cc(/C=C/c2ncc(C(=O)O)s2)cc(Br)c1OC |  | inconclusive: 35.5 µM [inhibitor, partial curve]
CCN1CCN(C(=O)c2ccc3c(c2)N(Cc2ccccc2)C(=O)c2ccccc2S3(=O)=O)CC1 |  | inconclusive: 141 µM [inhibitor, partial curve, poor fit]
CN(CC(=O)Nc1cccc(F)c1)CC(=O)Nc1cccc(S(N)(=O)=O)c1 |  | inconclusive: 2.24 µM [inhibitor, partial curve, poor fit]
CC(C)(C)Cc1c(-c2ccco2)nc2ccc(Cl)cn12 |  | inconclusive: 50.1 µM [inhibitor, partial curve, poor fit]
C[C@H]1CN([C@@H](C)CO)S(=O)(=O)c2ccc(Br)cc2O[C@H]1CN(C)C(=O)Cc1ccccn1 |  | inconclusive: 126 µM [inhibitor, partial curve, poor fit]
Cc1cc(C)cc(Nc2nc3ccccc3nc2NS(=O)(=O)c2cccs2)c1 |  | inconclusive: 112 µM [inhibitor, single point]

SMILES | activity change, negative = inhibition | Potency
COc1ccccc1CNC(=O)C1CCN(C2=NS(=O)(=O)C(c3ccc(C)c(C)c3)=C2C)CC1 | inactive: -2.58% | 
O=C(C[n+]1cc(-c2ccc(Br)cc2)n2c1CCCCC2)c1ccccc1 | inactive: 5.58% | 
O=C(COC(=O)CCc1c[nH]c2ccccc12)Nc1ccc([N+](=O)[O-])cc1C(F)(F)F |  | inconclusive: 100 µM [inhibitor, single point]
Cc1noc(NC(=O)c2c(-c3c(Cl)cccc3Cl)noc2C)c1[N+](=O)[O-] |  | inconclusive: 100 µM [inhibitor, single point]
COCC(C)N(C)C(=O)c1ccc2c(c1)NC(=O)CS2 (stereo not given) | inactive: 2.15% | 
C/C(=N\Nc1cc(Cl)nc(C)n1)c1ccc(Cl)c(Cl)c1 |  | inconclusive: 4.47 µM [inhibitor, full curve, poor fit]
N#Cc1c(SCC(=O)Nc2nc3ccc(Br)cc3s2)sc2c(O)cc(=O)[nH]c12 |  | active: 15.8 µM
COc1cc(C2=NOC(C(=O)NCc3ccc(F)cc3)C2)cc(OC)c1OC (stereo not given) | inactive: 4.86% | 
Nc1c(/C=C2/C=CC(=O)C(O)=C2)c(=O)nc2sc(CC(=O)N3CCOCC3)nn12 | inactive: -2.22% | 
CCCCn1c(N)c(N(CC(C)C)C(=O)c2cc(-c3ccncc3)nc3ccccc23)c(=O)[nH]c1=O |  | inconclusive: 3.98 µM [inhibitor, full curve, poor fit]
COCCCn1cnnc1SCC(=O)c1c[nH]c2ccccc12 |  | inconclusive: 56.2 µM [inhibitor, single point]
CC(C)C1Cc2c(sc(N)c2C#N)CO1 (stereo not given) |  | inconclusive: 35.5 µM [inhibitor, partial curve, poor fit]
NC(=S)NCc1ccco1 |  | inconclusive: 39.8 µM [inhibitor, partial curve, poor fit]
CC(CC(=O)NCCc1ccccn1)c1ccccc1 (stereo not given) | inactive: -5.54% | 
COc1ccc(OC)c(C2CC(=O)N(c3sc4c(c3C#N)CCCCC4)C3=C2C(=O)CCC3)c1 (stereo not given) | inactive: 16.4% | 
O=C(NNc1ccccc1)C(=O)NNS(=O)(=O)c1ccc([N+](=O)[O-])cc1 |  | inconclusive: 1.58 µM [inhibitor, full curve]
CCOC(=O)N1CCC(Nc2ncnc3c2cnn3-c2ccccc2)CC1 | inactive: 9.67% | 
CCCCCN1CCN(c2nc3c(c(=O)[nH]c(=O)n3C)n2Cc2ccc(Br)cc2)CC1 |  | inconclusive: 11.2 µM [inhibitor, partial curve, poor fit]
CCCCN=Cc1c(C)[nH]n(-c2ccccc2)c1=S |  | active: 22.4 µM
CC(=O)Nc1ccc(-n2c(=O)c3ccccc3c3ccccc3c2=O)cc1 | inactive: -12.9% | 
CN(CCO)C(=O)c1ccc(-c2nn(C)c(=O)c3ccccc23)cc1 | inactive: 3.87% | 
N#Cc1ccc(C(=O)NN2C(=O)NC3(CCCCC3)C2=O)cc1 | inactive: -25.9% | 

Part of the list above in a different format:
SMILES,"activity change, negative = inhibition",Potency
COc1ccccc1CNC(=O)C1CCN(C2=NS(=O)(=O)C(c3ccc(C)c(C)c3)=C2C)CC1,inactive: -2.58%,
O=C(C[n+]1cc(-c2ccc(Br)cc2)n2c1CCCCC2)c1ccccc1,inactive: 5.58%,
O=C(COC(=O)CCc1c[nH]c2ccccc12)Nc1ccc([N+](=O)[O-])cc1C(F)(F)F,,"inconclusive: 100 µM [inhibitor, single point]"
Cc1noc(NC(=O)c2c(-c3c(Cl)cccc3Cl)noc2C)c1[N+](=O)[O-],,"inconclusive: 100 µM [inhibitor, single point]"
COCC(C)N(C)C(=O)c1ccc2c(c1)NC(=O)CS2 (stereo not given),inactive: 2.15%,
C/C(=N\Nc1cc(Cl)nc(C)n1)c1ccc(Cl)c(Cl)c1,,"inconclusive: 4.47 µM [inhibitor, full curve, poor fit]"
